No constants are given. Whether binding was seen depends on the method and setting. In cells and extracts the contact can be indirect. Some results given as binding are weak or reduced against the parent protein; the word gives no strength.

Amino acid sequences for entries named in this document (tags omitted).
UniProt Q00613: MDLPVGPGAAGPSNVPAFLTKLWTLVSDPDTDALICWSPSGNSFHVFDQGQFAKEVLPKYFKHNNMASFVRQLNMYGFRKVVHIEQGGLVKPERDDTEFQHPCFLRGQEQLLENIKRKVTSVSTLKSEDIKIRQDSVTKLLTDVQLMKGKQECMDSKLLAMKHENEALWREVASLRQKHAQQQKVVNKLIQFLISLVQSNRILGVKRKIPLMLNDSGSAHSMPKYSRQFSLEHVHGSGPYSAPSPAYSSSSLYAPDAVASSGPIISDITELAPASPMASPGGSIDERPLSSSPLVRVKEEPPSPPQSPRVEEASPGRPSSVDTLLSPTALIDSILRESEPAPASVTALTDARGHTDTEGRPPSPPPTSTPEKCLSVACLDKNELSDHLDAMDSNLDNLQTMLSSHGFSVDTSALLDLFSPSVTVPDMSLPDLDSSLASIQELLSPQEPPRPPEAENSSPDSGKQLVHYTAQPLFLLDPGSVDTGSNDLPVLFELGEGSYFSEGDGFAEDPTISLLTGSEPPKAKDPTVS
UniProt O14980: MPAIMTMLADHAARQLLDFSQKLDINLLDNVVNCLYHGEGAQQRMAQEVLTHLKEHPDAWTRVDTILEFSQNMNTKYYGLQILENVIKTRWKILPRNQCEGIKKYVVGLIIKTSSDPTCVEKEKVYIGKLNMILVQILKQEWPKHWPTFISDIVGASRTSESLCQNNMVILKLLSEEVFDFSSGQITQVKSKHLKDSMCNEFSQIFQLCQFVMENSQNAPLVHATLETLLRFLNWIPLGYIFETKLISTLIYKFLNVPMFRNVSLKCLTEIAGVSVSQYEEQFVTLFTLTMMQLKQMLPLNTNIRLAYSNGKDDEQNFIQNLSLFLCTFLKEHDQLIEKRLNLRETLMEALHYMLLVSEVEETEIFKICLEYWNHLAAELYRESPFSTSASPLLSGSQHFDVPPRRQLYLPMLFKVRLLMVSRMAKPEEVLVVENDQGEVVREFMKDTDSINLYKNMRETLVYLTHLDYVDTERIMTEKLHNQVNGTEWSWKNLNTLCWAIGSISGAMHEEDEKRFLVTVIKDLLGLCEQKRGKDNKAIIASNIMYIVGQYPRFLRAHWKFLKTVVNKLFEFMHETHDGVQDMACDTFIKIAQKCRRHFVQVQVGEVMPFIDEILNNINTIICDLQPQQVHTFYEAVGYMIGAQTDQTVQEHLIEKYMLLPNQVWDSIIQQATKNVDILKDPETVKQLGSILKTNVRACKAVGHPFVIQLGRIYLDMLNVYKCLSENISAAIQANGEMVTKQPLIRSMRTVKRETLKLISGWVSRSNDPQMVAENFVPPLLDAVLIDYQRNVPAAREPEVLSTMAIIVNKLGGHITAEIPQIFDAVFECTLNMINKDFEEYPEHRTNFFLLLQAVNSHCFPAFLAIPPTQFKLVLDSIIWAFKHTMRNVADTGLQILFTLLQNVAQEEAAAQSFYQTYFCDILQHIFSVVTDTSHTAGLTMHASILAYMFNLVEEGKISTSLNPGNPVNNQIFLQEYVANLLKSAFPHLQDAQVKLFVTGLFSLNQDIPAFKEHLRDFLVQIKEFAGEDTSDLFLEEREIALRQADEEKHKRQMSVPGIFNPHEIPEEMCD

The target of the test is Heat Shock Factor 1 (human (endogenous in HeLa and MCF-7)) (UniProt Q00613). Description: co-IP; unpublished data; with or without heat shock; cells and antibodies not stated.

With “CRM1/exportin1 (from UniProt O14980 1-1071)”, the binding entry is recorded as “binds”.
